In patent US10519339B2, “Method for applying a coating to a polymeric substrate” (Sophion Bioscience A/S, priority 2012, dated 2019):

Conditions: 5 h, 100 nM

CCCCc1oc2ccccc2c1C(=O)c1cc(I)c(OCCN(CC)CC)c(I)c1 [amiodarone]
initial drug remaining in solution: less than 3%
